PubChem BioAssay AID504791, Drosophila RNAi Screening Center – 2011
The screen tested about 23,000 reagents; shown is a random part of those that have a named target and a result. In the full data, 199 (0.86%) are marked active. 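Plate-scaled ratios behind the calls are not deposited; printed light signals are raw; many rows marked increased or decreased are still called inactive.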 Reagents against one gene are numbered here. No sequences are given here.

- Purpose: 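Genes of the fly required for silencing by miRNA, siRNA or endo-siRNA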 (primary screen)
- Cells: Drosophila S2-derived reporter cells
- Reagents: long dsRNA against Drosophila genes, about 150-250 ng dsRNA per well (siRNA assay); about 80-120 ng (miRNA assay)
- Timing: about 5 days (siRNA assay); about 4 days (miRNA assay)
- Treatment: copper sulfate induction of reporters: 25 µM (siRNA assay); 200 mM stated (miRNA assay), 1-2 days before reading
- Read-out: 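Dual luciferase assay: Renilla to firefly signal ratio in each well, scaled to the mean ratio of its plate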
- Direction: siRNA reporter hit score: higher = 3 marks a strong hit with raised ratio; -3 a strong hit with lowered ratio
- Units: stable assay Renilla, run 1 in luminescence; stable assay firefly, run 1 in luminescence
- Active means: 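a well was a first-pass pick when its plate-scaled ratio rose above 1.5 (siRNA assay) or 1.6 (miRNA assay), or dropped below 0.6; a gene counted only if two separate dsRNAs agreed on retest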

For mei-41, how do the results read?
stable assay Renilla, run 1: 4952; stable assay firefly, run 1: 4.47e5; Outcome: inactive

What is on record for CG15710?
stable assay Renilla, run 1: 6415; stable assay firefly, run 1: 3.51e5; Outcome: inactive

For GstT2, how do the results read?
stable assay Renilla, run 1: 5726; stable assay firefly, run 1: 2.98e5; Outcome: inactive

How did the screen score CG31462 (retired record)?
stable assay Renilla, run 1: 6691; stable assay firefly, run 1: 3.78e5; Outcome: inactive

For CG15499 (retired record), how do the results read?
stable assay Renilla, run 1: 8236; stable assay firefly, run 1: 4.66e5; Outcome: inactive

For CG32147, what was measured?
stable assay Renilla, run 1: 6347; stable assay firefly, run 1: 4.42e5; Outcome: inactive

Which result is listed for I-t?
stable assay Renilla, run 1: 6922; stable assay firefly, run 1: 3.77e5; Outcome: inactive

With CG6660, what was measured?
stable assay Renilla, run 1: 6608; stable assay firefly, run 1: 3.76e5; Outcome: inactive

For CG3021 #1, what does the deposit list?
stable assay Renilla, run 1: 6639; stable assay firefly, run 1: 3.79e5; Outcome: inactive

With CG3021 #2, how do the results read?
stable assay Renilla, run 1: 7003; stable assay firefly, run 1: 4.54e5; Outcome: inactive

With mrn, how do the results read?
siRNA reporter hit score: -3; stable assay Renilla, run 1: 5898; stable assay firefly, run 1: 2.44e5; Outcome: inactive

Which result is listed for CG32651?
stable assay Renilla, run 1: 4779; stable assay firefly, run 1: 3.40e5; Outcome: inactive

An excerpt of the results above, as a working copy:
CG15710 → stable assay Renilla, run 1 = 6415; stable assay firefly, run 1 = 3.51e5; Outcome = inactive
GstT2 → stable assay Renilla, run 1 = 5726; stable assay firefly, run 1 = 2.98e5; Outcome = inactive
CG31462 (retired record) → stable assay Renilla, run 1 = 6691; stable assay firefly, run 1 = 3.78e5; Outcome = inactive
CG15499 (retired record) → stable assay Renilla, run 1 = 8236; stable assay firefly, run 1 = 4.66e5; Outcome = inactive
CG32147 → stable assay Renilla, run 1 = 6347; stable assay firefly, run 1 = 4.42e5; Outcome = inactive

Continued:
What did the screen give for CG13297?
stable assay Renilla, run 1: 7454; stable assay firefly, run 1: 6.31e5; Outcome: inactive

For dom #1, what was measured?
stable assay Renilla, run 1: 4.30e5; stable assay firefly, run 1: 5.14e5; Outcome: inactive

Which result is listed for dom #2?
miRNA reporter change: reporter ratio lowered past the hit cutoff; stable assay Renilla, run 1: 5444; stable assay firefly, run 1: 4.30e5; Outcome: active

What is on record for CG17124?
stable assay Renilla, run 1: 6876; stable assay firefly, run 1: 4.32e5; Outcome: inactive

With CG32642, what does the deposit list?
stable assay Renilla, run 1: 5494; stable assay firefly, run 1: 4.18e5; Outcome: inactive

For CG14480, what was measured?
stable assay Renilla, run 1: 6979; stable assay firefly, run 1: 3.74e5; Outcome: inactive

For RhoGAP1A #1, what does the deposit list?
stable assay Renilla, run 1: 4679; stable assay firefly, run 1: 3.01e5; Outcome: inactive

For RhoGAP1A #2, how do the results read?
stable assay Renilla, run 1: 4819; stable assay firefly, run 1: 2.60e5; Outcome: inactive

For Cyp9b1, how do the results read?
stable assay Renilla, run 1: 6663; stable assay firefly, run 1: 3.87e5; Outcome: inactive

With wcy, how do the results read?
stable assay Renilla, run 1: 9665; stable assay firefly, run 1: 4.29e5; Outcome: inactive

With CG15528, what was measured?
stable assay Renilla, run 1: 6414; stable assay firefly, run 1: 4.75e5; Outcome: inactive

With CG30184, how do the results read?
stable assay Renilla, run 1: 9387; stable assay firefly, run 1: 5.92e5; Outcome: inactive

With Sgs7, what does the deposit list?
stable assay Renilla, run 1: 5447; stable assay firefly, run 1: 4.28e5; Outcome: inactive

Which result is listed for Pldn?
stable assay Renilla, run 1: 7419; stable assay firefly, run 1: 4.76e5; Outcome: inactive

For Ugt37B1, what was measured?
stable assay Renilla, run 1: 7504; stable assay firefly, run 1: 3.93e5; Outcome: inactive

What is on record for CG6066 #1?
stable assay Renilla, run 1: 6006; stable assay firefly, run 1: 4.42e5; Outcome: inactive

For CG6066 #2, how do the results read?
stable assay Renilla, run 1: 7903; stable assay firefly, run 1: 6.58e5; Outcome: inactive
